These are yes or no findings as the source states them, for the method shown. Some entries that bind do so weakly or less than the wild type. Tags and fused reporters may be left off the sequences shown.
T1: CD47 on the T cell surface (UniProt Q61735)
T1 sequence (looked up): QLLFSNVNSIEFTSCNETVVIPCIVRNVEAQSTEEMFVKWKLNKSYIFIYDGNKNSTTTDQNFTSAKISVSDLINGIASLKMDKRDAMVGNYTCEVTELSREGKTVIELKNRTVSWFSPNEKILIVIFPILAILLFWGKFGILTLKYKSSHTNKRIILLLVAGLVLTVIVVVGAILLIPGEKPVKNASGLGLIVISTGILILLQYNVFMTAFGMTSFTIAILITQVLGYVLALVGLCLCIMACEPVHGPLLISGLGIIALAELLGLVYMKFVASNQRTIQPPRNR


Assays:
[1] = biological target: T1, CD47 on the T cell surface; experiment: flow cytometry blocking assay, A12 CAR-P2A-A4 T cells (FIG. 7)
[2] = biological target: T1, CD47 on the T cell surface; experiment: flow cytometry blocking assay on CAR T cells and bystander T cells; competitor is the fluorescently labeled anti-CD47 mAb
[3] = biological target: T1, CD47 on the T cell surface; experiment: flow cytometry blocking assay on A12 CAR-P2A-A4Fc T cells (FIG. 17)

Row | binding [1] | binding [2] | binding [3] | Binder
1 | binds | binds | – | A4 (anti-CD47 VHH), HA-tagged, secreted by CAR T cells (VHH, not shown: small tags and cut ends) VHH: QVQLVESGGGLVEPGGSLRLSCAASGIIFKINDMGWYRQAPGKRREWVAASTGGDEAIYRDSVKDRFTISRDAKNSVFLQMNSLKPEDTAVYYCTAVISTDRDGTEWRRYWGQGTQVTVSS
2 | – | – | binds | A4-Fc (anti-CD47 VHH A4 fused to an IgG2a Fc domain, with an HA tag) (Fc fusion, not shown: a dimerising Fc or GST; small tags and cut ends) QVQLVESGGGLVEPGGSLRLSCAASGIIFKINDMGWYRQAPGKRREWVAASTGGDEAIYRDSVKDRFTISRDAKNSVFLQMNSLKPEDTAVYYCTAVISTDRDGTEWRRYWGQGTQVTVSS

From US20220175833A1
